Laboratory results reported in article PMC7311640, “The Beta Subunit of Non-bifurcating NADH-Dependent [FeFe]-Hydrogenases Differs From Those of Multimeric Electron-Bifurcating [FeFe]-Hydrogenases” (Frontiers in Microbiology, 2020).
These are yes or no findings as the source states them, for the method shown. Some results given as binding are weak or reduced against the parent protein; the word gives no strength. Tags and fused reporters may be left off the sequences shown.

Key:
[1] = biological target: T1, HydA, alpha subunit of the Syntrophus aciditrophicus [FeFe]-hydrogenase HydAB (SYN_01370 gene product) with N-terminal His tag (Syntrophus aciditrophicus) (UniProt Q2LSB7); test: SEC; purified HydAB fraction on Superdex 200 10/300 GL calibrated with gel filtration standards; both purified
T1 sequence: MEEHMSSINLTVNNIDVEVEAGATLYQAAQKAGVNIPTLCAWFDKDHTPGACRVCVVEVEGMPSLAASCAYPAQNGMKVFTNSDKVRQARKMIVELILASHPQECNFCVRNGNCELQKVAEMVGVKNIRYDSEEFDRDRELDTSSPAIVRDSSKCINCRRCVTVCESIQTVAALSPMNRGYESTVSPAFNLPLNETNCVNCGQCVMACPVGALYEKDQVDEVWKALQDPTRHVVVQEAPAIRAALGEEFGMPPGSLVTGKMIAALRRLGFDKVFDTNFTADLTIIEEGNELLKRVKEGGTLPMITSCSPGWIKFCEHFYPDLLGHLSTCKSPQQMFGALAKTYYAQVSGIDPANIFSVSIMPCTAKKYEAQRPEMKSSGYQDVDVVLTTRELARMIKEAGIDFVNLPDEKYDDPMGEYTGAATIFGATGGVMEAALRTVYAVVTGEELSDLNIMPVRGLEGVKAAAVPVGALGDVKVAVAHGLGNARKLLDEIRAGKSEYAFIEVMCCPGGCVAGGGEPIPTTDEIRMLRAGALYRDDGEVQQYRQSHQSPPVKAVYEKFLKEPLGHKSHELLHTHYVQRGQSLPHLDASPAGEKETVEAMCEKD

[2] = biological target: T1, HydA, alpha subunit of the Syntrophus aciditrophicus [FeFe]-hydrogenase HydAB (SYN_01370 gene product) with N-terminal His tag (Syntrophus aciditrophicus); test: nickel-affinity co-purification; His-tagged HydA and untagged HydB co-expressed in E. coli; cell-free extract on HisTrap HP, washed with 50 mM imidazole, eluted with 250 mM imidazole, anaerobic; fraction analysed by SDS-PAGE and HPLC-MS/MS peptide identification

binding [1]: binds
binding [2]: binds
B1: HydB, flavin-containing beta subunit of the Syntrophus aciditrophicus [FeFe]-hydrogenase HydAB (SYN_01369 gene product) (enzyme, UniProt Q2LSB6 1-607)
chain: MITVQDIENVIAARGNAREHLMAILRDLENLSGRNVLDVSVLNTLAMKMDLPQSAISGFTSFYTMFSTEPRAKFIIRVCKSGPCHVMGARTIFDVIENHLGIRAGETTADGLFHLEECECLGLCSAAPAMMVNYDMHGNLSESNIKEILDSYSAREPAFKAEYGPGIEGRAVIINNSQQTRRLLENVGKVDPASIESYLQNGGYEAARKAFAEYSPEQVIGIVKDSGLRGRGGAGFPVGVKWSFVPKGEMQKYVICNADEGEPGTFKDRVLMEENPQQLIEGMLLCGYAIGATLGYIYVRGEYRRSIERLQSAIDQARAKGFLGKKIFGSNFDFDIFVKEGGGAYVCGEETSLINSMEGKRGYPRVRPPFPAAAGFMGMPSNVNNVETLSSIPMIVARGADWFKSVGTATCAGTKLYCLSGKVNQTGLVELPMGATLRQMIDTFGGGMKSGSSFKFAQVGGAAGGILGADLMDLPLDIDSTIKAGVTLGSGVVLVCDQETCAVDFLLNVLNFFEHESCGQCIPCKLGTSQLHYVAQKFAMREAEEKDIQLMIDTAKMMKLASLCALGQSPILPIETMIRNFREEFVKHCDPDYECPQCDASLQAYYL
